Laboratory results taken from PubChem BioAssay AID662 (National Center for Advancing Translational Sciences (NCATS), 2007).
Values joined by “and” are separate entries in the source; they are usually repeats but may differ in a detail not shown here. Equal entries are not always repeated. The list shows a part of the results. These are further read-outs of the screen, such as a control signal, another cell line or another target. No call is given for them. Most of these compounds were active or inconclusive in the main read-out, so they are no random draw. Words in brackets tell the shape of the fitted curve; partial curves, single points and poor fits give uncertain potencies.

Test: Cell signaling CRE-BLA (Fsk stim)
Details: CHO CRE-bla reporter (cAMP response element driving beta-lactamase), forskolin EC10, beta-lactamase ratio; measured here: 460 nm blue channel
Description: NIH Molecular Libraries Screening Centers Network [MLSCN]
NIH Chemical Genomics Center [NCGC]
Assay Provider: Marshall W. Nirenberg, U.S. National heart lung & blood institute
Memories persist for different lengths of time, from seconds or minutes to a lifetime. There are two kinds of memory: short-term memory (STM) and long-term memory (LTM). STM lasts for minutes to hours, which maybe mediated by modifications of molecules involved in synaptic functions. LTM lasts for days or longer, and may be due to the formation of new synapses or restructuring of existing synapses. LTM, but not STM, requires gene transcription and synthesis of proteins. CREB (cyclic-AMP Responsive Element Binding Protein) is one of the candidates plays an important role for enhancement of some types of LTM. CREB, a family of transcription factors, regulates the transcription of genes containing cAMP Responsive Elements (CRE). CRE is a nucleotide sequence often found in the promoter regions of genes that are binding sites for CREB.
Using a beta-lactamase reporter-gene under control of cAMP responsive element, a cell-based assay [CellSensor(TM) CRE-bla CHO developed by Invitrogen Corp.] was used to measure forskolin-induced signaling. Library compounds were measured for their ability to modulate positively or negatively the action of EC10 NKH 477, a water soluble forskolin, on reporter gene activity. Compounds were screened in a titration series in 1536-well format. Positive and negative modulators were identified based on the AC50 values derived from the screening data.
NCGC Assay Protocol Summary
2000 cells/5uL in Opti-MEM medium containing 0.5% dialyzed FBS, 0.1 mM NEAA, 1 mM sodium pyruvate and 10 mM HEPES was dispensed into 1536-well plates and cells were cultured at 37 degrees Celsius overnight. […] And then the plates were incubated at 37 degrees Celsius for 3 hours. 1 uL of CCF4-dye mixture was added to each well. After incubated at room temperature for 2 hours the plates were measured on an EnVision plate reader at Excitation 405nm, Emission1=460nm and Emission 2=530nm. The %Activity was determined from the ratio of 460nm/530nm.
Keywords: NIH Roadmap, MLSCN, MLSMR, qHTS, NCGC, CRE, beta-lactamase reporter-gene assay.

| SMILES | AC50 |
| --- | --- |
| Cn1cc(C(=O)NC2CCCCCCC2)c(=O)c2cc(S(=O)(=O)N3CCCC3)ccc21 | 0.0631 µM [falling, partial curve] |
| CSc1nnc2c3cc(C)ccc3n(Cc3ccccc3)c2n1 | 5.01 µM [rising, partial curve] |
| CCSc1nc2ccccc2n1Cc1nc(N)nc(N(C)C)n1 | 10 µM [rising, partial curve] |
| CCCCN(C(=O)NC(=O)Nc1ccccc1OC)S(C)(=O)=O | 0.00398 µM [falling, full curve, poor fit] |
| COC(=O)c1nnn(-c2nonc2N)c1CN1CCc2ccccc21 | 31.6 µM [falling, partial curve, poor fit] |
| O=C(O)CC1SC(=Nc2ccccc2)N(c2ccccc2)C1=O (centres undefined) | 0.631 µM [falling, full curve, poor fit] |
| O=C(NCc1ccco1)c1cc(-c2cccs2)on1 | 12.6 µM [falling, partial curve, poor fit] |
| COCC(C)OC(=O)C(C#N)c1nc2ccccc2nc1N1CCN(Cc2ccccc2)CC1 (centres undefined) | 12.6 µM [rising, partial curve] |
| O=C(Nc1ccccc1C(=O)OCc1nnc(-c2ccccc2)o1)c1ccco1 | 6.31 µM [rising, partial curve] |
| COc1ccc(C(=O)CSc2nnc(-c3ccco3)n2CC2CCCO2)cc1 (centres undefined) | 0.126 µM [falling, partial curve, poor fit] |
| COc1ncc2nc(-c3cc(F)cc(F)c3)c(=O)n(CCc3ccccc3)c2n1 | 12.6 µM [rising, partial curve] |
| COc1ccc(C2C(C(=O)NCc3ccccn3)c3ccccc3C(=O)N2C)cc1OC (centres undefined) | 0.00316 µM [falling, full curve, poor fit] |
| CCOC(=O)C1OC1c1ccccc1 (centres undefined) | 10 µM [rising, single point] |
| CC1(C)CC(=O)C(C=NCCCn2ccnc2)=C(O)C1 | 0.398 µM [rising, full curve] |
| C=CCN1C(=O)CN=C1Nc1cc(C)ccc1C | 0.00316 µM [falling, full curve, poor fit] |
| Oc1c(I)cc(Cl)c2cccnc12 | 12.6 µM [falling, single point] and 31.6 µM [falling, single point] |
| CCC(=O)OCc1cc2cccc(C)c2[nH]c1=O | 5.01 µM [falling, full curve] |
| COc1cc(OC)c(OC)cc1CN1CCN(c2ccccc2OC)CC1 | 0.00398 µM [falling, full curve, poor fit] |
| COc1ccc2nc(N3CCCC(O)C3)c(C#N)cc2c1 (centres undefined) | 20 µM [rising, single point] |

2 entries picked at random from the list so far, as already listed:

| SMILES | AC50 |
| --- | --- |
| Oc1c(I)cc(Cl)c2cccnc12 | 12.6 µM [falling, single point] and 31.6 µM [falling, single point] |
| COc1cc(OC)c(OC)cc1CN1CCN(c2ccccc2OC)CC1 | 0.00398 µM [falling, full curve, poor fit] |
